PubChem BioAssay AID1347075 (National Center for Advancing Translational Sciences (NCATS), 2019)
The whole screen tested about 400,000 compounds, of which about 5,500 (1.4%) were called active. The shares of active, inactive and inconclusive entries below differ from those in the screen. Calls follow the shape of the dose curve; as a rule, active = well fitted cell-killing curve with a large enough effect; inconclusive = small, poorly fitted or top-dose-only effect, or effect the other way; inactive = flat fitted curve, though single readings scatter. Potencies of inconclusive entries are doubtful fits and often do not repeat.

Test: qHTS assay for MDR1-selective chemotherapeutics: Primary screen using the parental adenocarcinoma cell KB-3-1; also: nearly all actives have a fitted effect of over 60% in size
Settings: KB-3-1 viability, CellTiter-Glo ATP luminescence, 72 h; series mostly up to 46.1 µM
Method in brief: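 Here the drug-naive KB-3-1 line serves as comparator for MDR sub-line selectivity; cells received compound titrations, 72 h at 37 °C, then CellTiter-Glo readout.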
Potency is read from the fitted curve at half-maximal effect.

Row | Structure (SMILES) | Potency
1 | COC(=O)c1ccc(OCC(=O)c2ccc(O)cc2O)cc1 | inconclusive: 29.1 µM [cytotoxic, single point]
2 | Cc1ccc(S(=O)(=O)N2CCN(C(=O)c3cc(=O)c4ccccc4o3)CC2)cc1 | inconclusive: 25.9 µM [rising, partial curve, poor fit]
3 | CCOC(=O)CN(C(=O)CSc1nnc2c(n1)[nH]c1ccc(OC)cc12)c1ccc(F)cc1 | inactive
4 | CNC(=S)N(Cc1cc2cc(C)ccc2n2nnnc12)CC(C)(C)CN(C)C | inactive
5 | CCN(CC)CCNC(=O)c1cc2c(=O)[nH]c3ccc(C)cc3c2s1 | inactive
6 | O=C(C1c2ccccc2Oc2ccccc21)N1CCN(c2ccc(Cl)cc2)CC1 | inconclusive: 25.9 µM [cytotoxic, single point]
7 | Cn1c(=N)n(CC(=O)c2ccc(Br)s2)c2ccccc21 | inconclusive: 29.1 µM [cytotoxic, single point]
8 | NC(=O)c1cccc(-c2ccnc3c2CC(C(=O)Nc2ccc(Cl)cc2)O3)c1 (configuration not stated) | inactive
9 | Cn1c(NC(=O)C[n+]2cc(-c3ccc(Cl)c(Cl)c3)n3c2CCC3)cc(=O)n(C)c1=O | inconclusive: 18.4 µM [cytotoxic, single point]
10 | COc1ccc(-n2nnnc2/C=C\Nc2ccccc2C(=O)c2ccccc2)cc1 | active: 5.8 µM
11 | COc1cc(/C=C/C(=O)OCC(=O)Nc2ccc3c(c2)OCCO3)ccc1O | inactive
12 | CC(C)(C)c1ccc(S(=O)(=O)Nc2ccc(O)c(Sc3nc4ccccc4s3)c2)cc1 | inconclusive: 7.31 µM [cytotoxic, partial curve]
13 | O=C(NCc1ccco1)c1cccc2c1C(=O)c1ccc(/C=C/c3ccccc3)cc1S2(=O)=O | inconclusive: 20.6 µM [cytotoxic, single point]
14 | Cc1cc(S(=O)(=O)NCCCN2CCOCC2)ccc1Br | inconclusive: 18.4 µM [rising, single point]
15 | Cc1ccc(S(=O)(=O)Nc2cc3c(cc2Cl)n(C)c(=O)c(=O)n3C)cc1 | inactive
16 | O=C(C1CCN(S(=O)(=O)c2cccs2)CC1)N1CCN(c2ccccc2O)CC1 | inconclusive: 3.26 µM [cytotoxic, partial curve]
17 | Cc1csc(NC(=O)c2ccco2)c1C(=O)c1ccccc1 | inconclusive: 20.6 µM [cytotoxic, single point]
18 | Cc1ccccc1C(=O)Nc1nnc(CC(=O)N/N=C/c2ccco2)s1 | inactive
19 | O=C(Nc1ccccc1)N1CCCN(c2ccc(C(F)(F)F)cn2)CC1 | inconclusive: 16.4 µM [cytotoxic, partial curve, poor fit]
20 | Cc1onc(-c2ccccc2Cl)c1C(=O)OCC(=O)Nc1cccc(S(=O)(=O)N(C)C)c1 | inconclusive: 20.6 µM [cytotoxic, single point]
21 | Cc1ccc(S(=O)(=O)N2CCN(c3nc(-c4cccs4)nc4ccccc34)CC2)cc1 | inactive
22 | Cc1cn([C@H]2C[C@H](O)[C@@H](/C=C/C(=O)NCCc3ccc(S(N)(=O)=O)cc3)O2)c(=O)[nH]c1=O | inactive
23 | Cc1ccc(C)c(CN2C(=O)c3ccccc3S(=O)c3ccc(C(=O)N(C)Cc4ccccc4)cc32)c1 (configuration not stated) | inactive
24 | Oc1ccc(Cl)cc1C1=NNC(c2cc(Br)cc3c2OCOC3)C1 (configuration not stated) | inconclusive: 14.6 µM [cytotoxic, partial curve, poor fit]

Taken from above.
For Potency, O=C(Nc1ccccc1)N1CCCN(c2ccc(C(F)(F)F)cn2)CC1 is entered as inconclusive: 16.4 µM [cytotoxic, partial curve, poor fit]
For Potency, COC(=O)c1ccc(OCC(=O)c2ccc(O)cc2O)cc1 is entered as inconclusive: 29.1 µM [cytotoxic, single point]

The list goes on.

Row | Structure (SMILES) | Potency
25 | CCOC(=O)c1ccc(CSC(=N)N)o1 | inconclusive: 20.6 µM [cytotoxic, single point]
26 | CC(=O)c1ccc(NC(=O)COC(=O)c2c3c(nc4ccccc24)/C(=C\c2cccs2)CCC3)cc1 | inactive
27 | Cn1ncc(S(=O)(=O)Cc2ccccc2)c(Cl)c1=O | inactive
28 | CCOc1ccc(N2C(=O)CC(N(CCc3ccccc3)C(=O)/C=C/C(=O)O)C2=O)cc1 (configuration not stated) | inactive
29 | CN(C)c1ccc(C(C(=O)NCc2ccccc2)N(Cc2ccco2)C(=O)c2snc(C(N)=O)c2N)cc1 (configuration not stated) | inconclusive: 29.1 µM [cytotoxic, single point]
30 | CCn1nnnc1SCC(=O)NC1Cc2ccccc2C1 | inactive
31 | Cc1nc(-c2coc3cc(OCC(=O)O)ccc3c2=O)cs1 | inconclusive: 29.1 µM [cytotoxic, single point]
32 | Cc1ccc(S(=O)(=O)N2CCC(=O)N(CCOCc3ccc(C(F)(F)F)cc3)CC2)cc1 | inactive
33 | N#CC1(NC(=O)COC(=O)c2nccnc2N)CCCCC1 | inactive
34 | CCC(=O)NC(=S)Nc1cccc(Cl)c1N1CCCCC1 | inconclusive: 35.5 µM [cytotoxic, single point]
35 | O=C(O)c1nn(Cc2csc(-c3ccccc3)n2)c(=O)c2ccccc12 | inactive
36 | CNc1nc2cc([N+](=O)[O-])c([N+](=O)[O-])cc2nc1NC | active: 8.2 µM
37 | COc1ccc(NC(C)=O)cc1S(=O)(=O)N1CCN(Cc2cccs2)CC1 | inactive
38 | Cc1nn(C)c2c1c(C(F)(F)F)cc(=O)n2CC(=O)NC(C)(C)C | inactive
39 | CCOc1ccc(OCC)c(NC(=O)c2c(C)nn(-c3ccccc3)c2-n2cccc2)c1 | inconclusive: 18.4 µM [cytotoxic, partial curve, poor fit]
40 | O=C(CN1CCc2cc3c(cc2C1)OCCCO3)Nc1cccc(Br)c1 | inactive
41 | O=C(Nc1ncc([N+](=O)[O-])s1)C1COc2ccccc2O1 (configuration not stated) | active: 16.4 µM
42 | Oc1ccccc1/C=N/Nc1cccc2cccnc12 | inconclusive: 29.1 µM [cytotoxic, single point]
43 | CN(Cc1ccc(F)cc1)C(=O)c1cccc(S(=O)(=O)N2CCN(Cc3ccccc3)CC2)c1 | inactive
44 | O=C1c2ccccc2C(=O)N1C(CO)C(O)c1ccc([N+](=O)[O-])cc1 (configuration not stated) | inactive
45 | COc1ccc(-c2cc(-c3cccs3)c(C#N)c(SCC(=O)NCc3ccco3)n2)cc1 | inconclusive: 2.91 µM [cytotoxic, partial curve, poor fit]
46 | O=C(Cc1cccc2ccccc12)Nc1ccc(Br)cc1C(=O)O | inconclusive: 18.4 µM [cytotoxic, partial curve, poor fit]
47 | CC(C)(C)S(=O)N1Cc2cc(C(=O)NCc3ccc4c(c3)OCO4)nc(-c3cccc(-c4cc5ccccc5o4)c3)c2[C@@H]1CCO (some centres not stated) | inconclusive: 29.1 µM [cytotoxic, single point]
